doi:10.1101/679803

Molecular target: inceptin receptor INR-Vu (Vigun07g219600) (cowpea (Vigna unguiculata))
Experiment: co-IP

Binder | binding
AtSERK2 (receptor, UniProt Q9XIC7 30-628) NMEGDALHSLRANLVDPNNVLQSWDPTLVNPCTWFHVTCNNENSVIRVDLGNADLSGQLVPQLGQLKNLQYLELYSNNITGPVPSDLGNLTNLVSLDLYLNSFTGPIPDSLGKLFKLRFLRLNNNSLTGPIPMSLTNIMTLQVLDLSNNRLSGSVPDNGSFSLFTPISFANNLDLCGPVTSRPCPGSPPFSPPPPFIPPPIVPTPGGYSATGAIAGGVAAGAALLFAAPALAFAWWRRRKPQEFFFDVPAEEDPEVHLGQLKRFSLRELQVATDSFSNKNILGRGGFGKVYKGRLADGTLVAVKRLKEERTPGGELQFQTEVEMISMAVHRNLLRLRGFCMTPTERLLVYPYMANGSVASCLRERPPSQLPLAWSIRQQIALGSARGLSYLHDHCDPKIIHRDVKAANILLDEEFEAVVGDFGLARLMDYKDTHVTTAVRGTIGHIAPEYLSTGKSSEKTDVFGYGIMLLELITGQRAFDLARLANDDDVMLLDWVKGLLKEKKLEMLVDPDLQSNYTEAEVEQLIQVALLCTQSSPMERPKMSEVVRMLEGDGLAEKWDEWQKVEVLRQEVELSSHPTSDWILDSTDNLHAMELSGPR | binds
AtSERK3 (receptor, UniProt Q94F62 26-615) NAEGDALSALKNSLADPNKVLQSWDATLVTPCTWFHVTCNSDNSVTRVDLGNANLSGQLVMQLGQLPNLQYLELYSNNITGTIPEQLGNLTELVSLDLYLNNLSGPIPSTLGRLKKLRFLRLNNNSLSGEIPRSLTAVLTLQVLDLSNNPLTGDIPVNGSFSLFTPISFANTKLTPLPASPPPPISPTPPSPAGSNRITGAIAGGVAAGAALLFAVPAIALAWWRRKKPQDHFFDVPAEEDPEVHLGQLKRFSLRELQVASDNFSNKNILGRGGFGKVYKGRLADGTLVAVKRLKEERTQGGELQFQTEVEMISMAVHRNLLRLRGFCMTPTERLLVYPYMANGSVASCLRERPESQPPLDWPKRQRIALGSARGLAYLHDHCDPKIIHRDVKAANILLDEEFEAVVGDFGLAKLMDYKDTHVTTAVRGTIGHIAPEYLSTGKSSEKTDVFGYGVMLLELITGQRAFDLARLANDDDVMLLDWVKGLLKEKKLEALVDVDLQGNYKDEEVEQLIQVALLCTQSSPMERPKMSEVVRMLEGDGLAERWEEWQKEEMFRQDFNYPTHHPAVSGWIIGDSTSQIENEYPSGPR | binds

Results, then the binder that gave them:

binding | Binder
binds | AtSERK1 (receptor, UniProt Q94AG2 27-625) NLEGDALHTLRVTLVDPNNVLQSWDPTLVNPCTWFHVTCNNENSVIRVDLGNAELSGHLVPELGVLKNLQYLELYSNNITGPIPSNLGNLTNLVSLDLYLNSFSGPIPESLGKLSKLRFLRLNNNSLTGSIPMSLTNITTLQVLDLSNNRLSGSVPDNGSFSLFTPISFANNLDLCGPVTSHPCPGSPPFSPPPPFIQPPPVSTPSGYGITGAIAGGVAAGAALLFAAPAIAFAWWRRRKPLDIFFDVPAEEDPEVHLGQLKRFSLRELQVASDGFSNKNILGRGGFGKVYKGRLADGTLVAVKRLKEERTPGGELQFQTEVEMISMAVHRNLLRLRGFCMTPTERLLVYPYMANGSVASCLRERPPSQPPLDWPTRKRIALGSARGLSYLHDHCDPKIIHRDVKAANILLDEEFEAVVGDFGLAKLMDYKDTHVTTAVRGTIGHIAPEYLSTGKSSEKTDVFGYGIMLLELITGQRAFDLARLANDDDVMLLDWVKGLLKEKKLEMLVDPDLQTNYEERELEQVIQVALLCTQGSPMERPKMSEVVRMLEGDGLAEKWDEWQKVEILREEIDLSPNPNSDWILDSTYNLHAVELSGPR
binds | AtSERK4 (receptor, UniProt Q9SKG5 34-620) DALTQLKNSLSSGDPANNVLQSWDATLVTPCTWFHVTCNPENKVTRVDLGNAKLSGKLVPELGQLLNLQYLELYSNNITGEIPEELGDLVELVSLDLYANSISGPIPSSLGKLGKLRFLRLNNNSLSGEIPMTLTSVQLQVLDISNNRLSGDIPVNGSFSLFTPISFANNSLTDLPEPPPTSTSPTPPPPSGGQMTAAIAGGVAAGAALLFAVPAIAFAWWLRRKPQDHFFDVPAEEDPEVHLGQLKRFTLRELLVATDNFSNKNVLGRGGFGKVYKGRLADGNLVAVKRLKEERTKGGELQFQTEVEMISMAVHRNLLRLRGFCMTPTERLLVYPYMANGSVASCLRERPEGNPALDWPKRKHIALGSARGLAYLHDHCDQKIIHRDVKAANILLDEEFEAVVGDFGLAKLMNYNDSHVTTAVRGTIGHIAPEYLSTGKSSEKTDVFGYGVMLLELITGQKAFDLARLANDDDIMLLDWVKEVLKEKKLESLVDAELEGKYVETEVEQLIQMALLCTQSSAMERPKMSEVVRMLEGDGLAERWEEWQKEEMPIHDFNYQAYPHAGTDWLIPYSNSLIENDYPSGPR

These are yes or no findings as the source states them, for the method shown. Binding seen in cells or lysates may run through a third protein. A result given as binding can be weak or reduced; the word gives no strength.
